PubChem BioAssay AID2685 (National Center for Advancing Translational Sciences (NCATS), 2010)
The whole screen tested about 320,000 compounds, of which about 2,100 (0.66%) were called active. Inconclusive means that the source gave no clear call. Such entries were picked first, then a sample of the others. The call rests on the fitted dose curve; in most records, active means well fitted inhibition curve with a large enough effect in the signal ratio, with a control signal flat (not every such curve was filed as active); inconclusive means small, poorly fitted or top-dose-only effect, or effect the other way, or a change in a side signal; inactive means flat fitted curve, though single readings scatter; the % refers to the signal ratio. Potencies beside an inconclusive call are fits to weak or partial responses and may not hold up.

Test: qHTS Assay for Lipid Storage Modulators in Drosophila S3 Cells
Conditions: BODIPY lipid droplet fluorescence, 18-24 h, cells fed with added oleic acid; lipid storage change, negative = inhibition: at 46.1 µM (top of the series) unless noted
Summary of the method: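 Laser-scanning cytometry quantifies lipid droplet accumulation (500–530 nm total intensity; droplet/cell object ratio) in oleic acid-fed (400 uM added) Drosophila S3 cells treated with a concentration series. 20 uM Triacsin C defined 100% inhibition.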
On the % scale 0 is the no-effect control and ±100 the full control effect; potency means the concentration at half of the fitted maximal effect.

SMILES | lipid storage change, negative = inhibition | Potency
CC(OC(=O)CN1C(=O)NC2(CCCC2)C1=O)C(=O)c1ccccc1 (stereo not given) | inconclusive | –
COc1ccccc1-n1c(SCC(=O)Nc2ccccc2C)nc(O)cc1=O | inconclusive: 34.3% | –
CCCCCc1cc(=O)oc2c(C(CCN(CC)CC)c3cc(OC)c(OC)c(OC)c3)c(OC)cc(OC)c12 (stereo not given) | inconclusive: -5.81% | –
O=C(NCc1ccccn1)c1ccc(OC2CCN(Cc3ccccc3)CC2)cc1 | – | inconclusive: 16400 nM [activator, partial curve]
CCOC(=O)[C@H]1[C@H]2COc3ccc(Cl)cc3[C@@H]2N2C(=O)CN(Cc3ccc(F)cc3)C(=O)[C@@]12C | – | inconclusive: 1460 nM [falling, single point]
Oc1ccccc1OCC(O)c1ccccc1 (stereo not given) | – | inconclusive: 651 nM [activator, partial curve, poor fit]
COc1ccc(Cc2nc(-c3cccnc3)no2)cc1OC | inconclusive: 32.1% | –
CCOc1cc(C(=O)N2CCOCC2)ccc1OCc1ccccc1 | – | inconclusive: 2590 nM [activator, single point]
Cc1ccc(S(=O)(=O)N2CCOCC2)cc1C(=O)N1C(=O)c2cccc(N)c2C1=O | – | inconclusive: 820 nM [falling, full curve, poor fit]
Nc1cc(=O)[nH]c(SCCSc2ccccc2F)n1 | inconclusive: -114% | –
O=C1c2ccccc2C(=O)N1c1ccc(-c2nc3ccccc3o2)cc1 | inconclusive: 9.21% | –
COc1ccc(N2CC(C(=O)N3CCN(c4ccccc4F)CC3)CC2=O)cc1 (stereo not given) | inconclusive: 220% | –
CCC(c1nnc(SCCNCCO)n1CCN1CCOCC1)N(C)C (stereo not given) | inconclusive: -54.4% | –
CC(C)OC(=O)CSc1nnc(-c2ccco2)n1N | inconclusive: 11.8% | –
CC(C)(C)c1ccc(/C=N/OCC(=O)NCc2ccccc2)cc1 | inconclusive: -21.3% | –
CC(=O)c1ccc(OCCCC(=O)NNC(=O)c2ccccn2)cc1 | – | inconclusive: 2590 nM [activator, full curve, poor fit]
O=C(Nc1cccc(-c2cn3c(n2)SCC3)c1)c1ccc2c(c1)OCO2 | inconclusive: -14.8% | –
COc1ccc(-c2cc(-c3ccc(O)cc3)nc(N)c2C#N)cc1 | inconclusive: -1.05% | –
N#Cc1nnn(-c2ccc(Cl)cc2)c1N | inconclusive: -29.3% | –
C=C(C)C(=O)O[C@H]1C/C(C)=C\C(=O)/C=C(\C)[C@H](O)[C@@H]2OC(=O)C(=C)[C@@H]21 | inconclusive: -86.6% | –
Cc1ccc2c(N)c(C(=O)N(c3ccccc3)c3ccccc3)sc2n1 | inactive | –
O=C(Nc1ccc(Br)cc1)c1cc(-c2cccs2)on1 | inconclusive: 56.1% | –
CCOC(=O)CN1C(=O)C(O)(CC(=O)c2cccc(OC)c2)c2ccccc21 (stereo not given) | inconclusive: 101% | –
COCCn1cnnc1SCC(=O)Nc1ccc(N2CCCCC2)cc1 | – | inconclusive: 116 nM [falling, full curve, poor fit]
Cn1c(CSCc2ccc(Cl)cc2)nnc1SCC(=O)Nc1nc2ccccc2s1 | inconclusive: -3.19% | –

A draw from above in order of length of the SMILES, low to high:
SMILES | lipid storage change, negative = inhibition | Potency
Nc1cc(=O)[nH]c(SCCSc2ccccc2F)n1 | inconclusive: -114% | –
COc1ccc(N2CC(C(=O)N3CCN(c4ccccc4F)CC3)CC2=O)cc1 (stereo not given) | inconclusive: 220% | –
CCCCCc1cc(=O)oc2c(C(CCN(CC)CC)c3cc(OC)c(OC)c(OC)c3)c(OC)cc(OC)c12 (stereo not given) | inconclusive: -5.81% | –
CCOC(=O)[C@H]1[C@H]2COc3ccc(Cl)cc3[C@@H]2N2C(=O)CN(Cc3ccc(F)cc3)C(=O)[C@@]12C | – | inconclusive: 1460 nM [falling, single point]

The results go on.

SMILES | lipid storage change, negative = inhibition | Potency
CC(NC(=O)C1CC1)C(c1cccs1)N1CCOCC1 (stereo not given) | inconclusive: -11.9% | –
O=C(NCc1n[nH]c(=O)c2ccccc12)C1CC(=O)N(c2ccccc2)C1 (stereo not given) | inconclusive: 31.8% | –
O=C(CN(C(=O)c1nsc(Cl)c1Cl)c1cccc(F)c1)NC1CCCC1 | – | inconclusive: 116 nM [falling, full curve, poor fit]
CCc1cc(C(=O)N2CCCC(CCC(=O)N3CCN(c4ccccn4)CC3)C2)no1 (stereo not given) | inactive | –
CC1(C)CC(=O)C(C=NCC2CCN(C(=S)Nc3cccc(Cl)c3)CC2)=C(O)C1 | inconclusive: 1.62% | –
COc1ccc2[nH]c(=O)c(CNc3ccc(C)cc3C)cc2c1 | inactive | –
CC1=C(C(=O)OCc2ccccc2)C(c2ccc(C)o2)C2=C(CCCC2=O)N1 (stereo not given) | – | inconclusive: 29100 nM [activator, single point]
O=C(Nc1nnc(-c2ccc(F)cc2)s1)c1c(F)cccc1Cl | inconclusive: 12.9% | –
Nc1cc(=O)[nH]c(SCC(=O)N2N=C(c3ccc4ccccc4c3)CC2c2ccccc2)n1 (stereo not given) | inconclusive: 38.4% | –
CCCN1CCN(C(=S)Nc2ccc(SC(F)F)cc2)CC1 | inconclusive: 28.6% | –
O=S(=O)(NCc1ccc2c(c1)OCO2)c1ccc(F)c(F)c1 | – | inconclusive: 23100 nM [falling, single point]
Cc1ccc(-c2nnn(CC(=O)N(c3ccccc3)C(C(=O)NCC3CCCO3)c3ccc(Cl)cc3)n2)cc1 (stereo not given) | inconclusive: -38.6% | –
Cc1ccc(NC(=O)CCNC(=O)c2ccccc2)cc1F | inconclusive: 1.9% | –
CC(CN(C)Cc1ccccc1)OC(=O)c1cccc(F)c1 (stereo not given) | inconclusive: -5.22% | –
CCOc1cc(/C=C2\COc3ccccc3C2=O)ccc1OCC(=O)N(C)C | inactive | –
CCOC(=O)C1=C(CN2CCN(C(=O)c3ccco3)CC2)NC(=O)NC1c1ccc(OC)cc1 (stereo not given) | – | inconclusive: 23100 nM [falling, single point]
Cc1nn(-c2ccccc2)c2sc(C(=O)OCC(=O)N3CCCCC3)cc12 | – | inconclusive: 1840 nM [activator, full curve, poor fit]
CN(C)C(CNc1ncnc2ccccc12)c1c(F)cccc1Cl (stereo not given) | inconclusive: -75.9% | –
Cc1ncsc1CCSc1n[nH]c(=O)n1-c1ccccc1 | inconclusive: 65.6% | –
CCCCc1nnc(NC(=O)c2ccc(-n3cncn3)c([N+](=O)[O-])c2)s1 | inconclusive | –
CCCOc1ccc2c3c(c(=O)oc2c1)CCCC3 | inconclusive: 61.5% | –
Cc1sc2ncnc(NCC(O)c3ccccc3)c2c1C (stereo not given) | inconclusive: 55.7% | –
CSc1ncccc1C(=O)Nc1ccc(S(=O)(=O)N2CCCC2)cc1 | inconclusive: -0.557% | –
CC(=O)NCN1CCN(CNC(C)=O)CC1 | – | inconclusive: 1840 nM [falling, full curve]
O=C(c1ccc2c(=O)n(-c3ccccc3)c(=O)[nH]c2c1)N1CCN(c2ccc(F)cc2)CC1 | inconclusive: 31.6% | –
